Source: patent US20210061800A1, “COMPOUNDS FOR TREATING EYE DISEASES AND METHODS THEREOF” (Agency for Science, Technology and Research, priority 2017, published 2021)
Some results were stated once for a whole list of compounds, not compound by compound.

Test system: PDGFRβ, PDGFRα and VEGFR2
Assay: Kinome array selectivity assay against 320 different kinases
Assay type: biochemical
Conditions: 320 kinases

SMILES | selectivity to PDGFRβ, PDGFRα and VEGFR2 [%]
Cc1ccc(NC(=O)COc2ccc(-c3cnc4ccccn34)cc2)cc1C(F)(F)F [Ex 3, N-[4-methyl-3-(trifluoromethyl)phenyl]-2-[4-imidazo[1,2-a]pyridin-3-ylphenoxy]acetamide] | > 90
Cc1ccc(NC(=O)COc2ccc(-c3cnc4ccccn34)cc2)cc1C [Ex 2, N-(3,4-dimethylphenyl)-2-[4-imidazo[1,2-a]pyridin-3-ylphenoxy]acetamide] | > 90
